Data source: PubChem BioAssay AID1508597 (Cure First, 2020)
Shown is an unselected part of the about 2,100 reagents, under one of the conditions tested. 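Calls flag viability under 80% in either arm, not effects specific to rucaparib; the reference for percent is not stated.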 A reagent listed more than once was tested more than once; the source does not tell the runs apart. Not stated in the record: the 100% reference.

Test: 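Genes whose silencing sensitises or protects ovarian cancer cells against rucaparib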 (primary screen)
Cell system: human ovarian carcinoma lines grown from tumours: OCI-P5x (papillary serous) and OCI-C5x (clear cell)
Knock-down reagent: siRNA pool against human genes, 1.25 pmol siRNA per well
Time to read-out: 72 h or 96 h, depending on the cell culture
Conditions: rucaparib 20 µM (about IC30) or vehicle, present until read-out
Rucaparib or vehicle: Rucaparib
Cell line: OCI-C5x (clear cell)
Measured: 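Luminescent ATP-based viability assay read 72 or 96 h after transfection, depending on culture, given as normalised percent viability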
Reading the numbers: viability, normalised: higher = more viable cells remaining
Rule for the call: 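Active when normalised viability falls below 80 percent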
Meaning of the calls: active = viability under 80%; inactive = viability 80% or more

no.	gene symbol	technical replicate	viability, normalised (%)	outcome
1	DYRK1A	1	85.4	inactive
2	DYRK1A	2	44	active
3	DYRK1A	3	69.7	active
4	BTK (Bruton tyrosine kinase)	1	73.8	active
5	BTK (Bruton tyrosine kinase)	1	61.6	active
6	BTK (Bruton tyrosine kinase)	2	55.4	active
7	BTK (Bruton tyrosine kinase)	2	62.6	active
8	BTK (Bruton tyrosine kinase)	3	64.8	active
9	BTK (Bruton tyrosine kinase)	3	69.3	active
10	UBR7 (ubiquitin protein ligase E3 component n-recognin 7)	1	77.3	active
11	UBR7 (ubiquitin protein ligase E3 component n-recognin 7)	2	74.3	active
12	UBR7 (ubiquitin protein ligase E3 component n-recognin 7)	3	77.6	active
13	PLCZ1 (phospholipase C zeta 1)	1	72.7	active
14	PLCZ1 (phospholipase C zeta 1)	2	59.2	active
15	PLCZ1 (phospholipase C zeta 1)	3	47.1	active
16	POLR1C (RNA polymerase I and III subunit C)	1	76.6	active
17	POLR1C (RNA polymerase I and III subunit C)	2	63.6	active
18	POLR1C (RNA polymerase I and III subunit C)	3	66.8	active
19	SLC16A9	1	36	active
20	SLC16A9	2	35.3	active
21	SLC16A9	3	30.6	active

As entered above.
Entry of POLR1C (RNA polymerase I and III subunit C), technical replicate 2 in “viability, normalised (%)”: 63.6
PLCZ1 (phospholipase C zeta 1), technical replicate 1, outcome = active
Result for DYRK1A, technical replicate 1 in “outcome”: inactive
DYRK1A, technical replicate 3, viability, normalised (%): 69.7

The list goes on:
no.	gene symbol	technical replicate	viability, normalised (%)	outcome
22	RAD54L2 (RAD54 like 2)	1	48.4	active
23	RAD54L2 (RAD54 like 2)	2	52.1	active
24	RAD54L2 (RAD54 like 2)	3	53.2	active
25	IGF1R (insulin like growth factor 1 receptor)	1	46.9	active
26	IGF1R (insulin like growth factor 1 receptor)	2	44.9	active
27	IGF1R (insulin like growth factor 1 receptor)	3	50.7	active
28	NAP1L2 (nucleosome assembly protein 1 like 2)	1	75.5	active
29	NAP1L2 (nucleosome assembly protein 1 like 2)	2	41.2	active
30	NAP1L2 (nucleosome assembly protein 1 like 2)	3	33	active
31	SMCHD1	1	46.8	active
32	SMCHD1	2	71.6	active
33	SMCHD1	3	55.9	active
34	PIP4K2A (phosphatidylinositol-5-phosphate 4-kinase type 2 alpha)	1	58.7	active
35	PIP4K2A (phosphatidylinositol-5-phosphate 4-kinase type 2 alpha)	2	92	inactive
36	PIP4K2A (phosphatidylinositol-5-phosphate 4-kinase type 2 alpha)	3	64.3	active
37	ASNS (asparagine synthetase (glutamine-hydrolyzing))	1	76.1	active
38	ASNS (asparagine synthetase (glutamine-hydrolyzing))	2	59.7	active
39	ASNS (asparagine synthetase (glutamine-hydrolyzing))	3	45	active
